From the supplement of paper PMC10849652
This is one part of the list.

Protein sequences, listed by entry. Tags and fused reporters are not part of them. Lines headed by an entry give the natural chain unless they say otherwise; changes in a name come on top.
UniProt O94826, whole entry, looked up: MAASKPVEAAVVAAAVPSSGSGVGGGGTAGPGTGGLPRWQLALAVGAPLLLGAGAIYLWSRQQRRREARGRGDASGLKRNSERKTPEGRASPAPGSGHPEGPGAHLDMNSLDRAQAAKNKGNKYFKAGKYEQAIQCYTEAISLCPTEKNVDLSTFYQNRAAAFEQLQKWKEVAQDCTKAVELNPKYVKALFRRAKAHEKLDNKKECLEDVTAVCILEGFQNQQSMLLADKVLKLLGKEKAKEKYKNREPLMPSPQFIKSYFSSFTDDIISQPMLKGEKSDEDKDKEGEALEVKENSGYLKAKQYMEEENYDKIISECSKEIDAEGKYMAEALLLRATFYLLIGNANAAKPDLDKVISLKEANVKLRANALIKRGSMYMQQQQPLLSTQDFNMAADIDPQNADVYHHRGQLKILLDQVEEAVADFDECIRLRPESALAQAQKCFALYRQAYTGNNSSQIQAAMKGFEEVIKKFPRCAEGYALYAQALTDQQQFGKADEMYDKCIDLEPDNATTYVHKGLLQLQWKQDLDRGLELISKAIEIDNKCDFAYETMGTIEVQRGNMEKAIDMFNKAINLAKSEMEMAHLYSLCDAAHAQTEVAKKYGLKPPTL
UniProt Q9ULW0, whole entry, looked up: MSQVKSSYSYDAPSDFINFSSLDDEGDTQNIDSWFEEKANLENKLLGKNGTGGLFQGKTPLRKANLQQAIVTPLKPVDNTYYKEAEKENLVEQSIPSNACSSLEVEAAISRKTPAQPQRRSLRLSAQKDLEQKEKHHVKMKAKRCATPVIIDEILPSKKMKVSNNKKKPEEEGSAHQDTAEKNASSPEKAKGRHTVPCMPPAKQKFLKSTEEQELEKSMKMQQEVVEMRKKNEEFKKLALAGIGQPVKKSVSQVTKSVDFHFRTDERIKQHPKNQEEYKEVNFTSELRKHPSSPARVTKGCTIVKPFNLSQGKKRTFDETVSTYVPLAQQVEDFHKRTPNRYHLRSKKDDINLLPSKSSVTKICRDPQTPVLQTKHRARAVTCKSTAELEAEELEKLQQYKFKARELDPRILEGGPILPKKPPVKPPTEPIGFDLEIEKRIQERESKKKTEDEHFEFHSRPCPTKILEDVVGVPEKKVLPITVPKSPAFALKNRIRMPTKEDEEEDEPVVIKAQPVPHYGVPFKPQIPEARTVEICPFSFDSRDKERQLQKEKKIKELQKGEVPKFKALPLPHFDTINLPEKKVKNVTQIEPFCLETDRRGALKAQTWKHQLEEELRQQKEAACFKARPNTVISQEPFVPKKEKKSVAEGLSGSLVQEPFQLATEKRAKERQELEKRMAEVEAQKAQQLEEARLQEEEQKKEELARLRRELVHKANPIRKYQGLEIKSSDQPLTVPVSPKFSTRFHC
UniProt P06753, whole entry, looked up: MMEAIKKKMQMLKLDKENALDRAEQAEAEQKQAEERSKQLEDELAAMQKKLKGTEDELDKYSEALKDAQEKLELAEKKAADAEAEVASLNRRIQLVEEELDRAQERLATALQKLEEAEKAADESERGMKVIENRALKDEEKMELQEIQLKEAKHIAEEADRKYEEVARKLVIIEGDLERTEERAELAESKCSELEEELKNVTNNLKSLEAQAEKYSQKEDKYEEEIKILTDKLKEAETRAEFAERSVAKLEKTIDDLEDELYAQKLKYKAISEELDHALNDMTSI
UniProt O96008: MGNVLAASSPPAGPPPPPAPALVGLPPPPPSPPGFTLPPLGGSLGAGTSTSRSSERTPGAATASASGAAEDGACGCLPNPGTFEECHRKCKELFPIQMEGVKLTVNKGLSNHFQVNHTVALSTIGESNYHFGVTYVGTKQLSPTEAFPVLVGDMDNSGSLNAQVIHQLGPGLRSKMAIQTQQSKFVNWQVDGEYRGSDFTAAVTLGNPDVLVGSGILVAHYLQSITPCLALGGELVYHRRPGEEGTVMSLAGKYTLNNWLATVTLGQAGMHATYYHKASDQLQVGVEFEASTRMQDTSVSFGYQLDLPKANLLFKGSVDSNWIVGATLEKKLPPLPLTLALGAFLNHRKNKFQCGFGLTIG
UniProt Q92574: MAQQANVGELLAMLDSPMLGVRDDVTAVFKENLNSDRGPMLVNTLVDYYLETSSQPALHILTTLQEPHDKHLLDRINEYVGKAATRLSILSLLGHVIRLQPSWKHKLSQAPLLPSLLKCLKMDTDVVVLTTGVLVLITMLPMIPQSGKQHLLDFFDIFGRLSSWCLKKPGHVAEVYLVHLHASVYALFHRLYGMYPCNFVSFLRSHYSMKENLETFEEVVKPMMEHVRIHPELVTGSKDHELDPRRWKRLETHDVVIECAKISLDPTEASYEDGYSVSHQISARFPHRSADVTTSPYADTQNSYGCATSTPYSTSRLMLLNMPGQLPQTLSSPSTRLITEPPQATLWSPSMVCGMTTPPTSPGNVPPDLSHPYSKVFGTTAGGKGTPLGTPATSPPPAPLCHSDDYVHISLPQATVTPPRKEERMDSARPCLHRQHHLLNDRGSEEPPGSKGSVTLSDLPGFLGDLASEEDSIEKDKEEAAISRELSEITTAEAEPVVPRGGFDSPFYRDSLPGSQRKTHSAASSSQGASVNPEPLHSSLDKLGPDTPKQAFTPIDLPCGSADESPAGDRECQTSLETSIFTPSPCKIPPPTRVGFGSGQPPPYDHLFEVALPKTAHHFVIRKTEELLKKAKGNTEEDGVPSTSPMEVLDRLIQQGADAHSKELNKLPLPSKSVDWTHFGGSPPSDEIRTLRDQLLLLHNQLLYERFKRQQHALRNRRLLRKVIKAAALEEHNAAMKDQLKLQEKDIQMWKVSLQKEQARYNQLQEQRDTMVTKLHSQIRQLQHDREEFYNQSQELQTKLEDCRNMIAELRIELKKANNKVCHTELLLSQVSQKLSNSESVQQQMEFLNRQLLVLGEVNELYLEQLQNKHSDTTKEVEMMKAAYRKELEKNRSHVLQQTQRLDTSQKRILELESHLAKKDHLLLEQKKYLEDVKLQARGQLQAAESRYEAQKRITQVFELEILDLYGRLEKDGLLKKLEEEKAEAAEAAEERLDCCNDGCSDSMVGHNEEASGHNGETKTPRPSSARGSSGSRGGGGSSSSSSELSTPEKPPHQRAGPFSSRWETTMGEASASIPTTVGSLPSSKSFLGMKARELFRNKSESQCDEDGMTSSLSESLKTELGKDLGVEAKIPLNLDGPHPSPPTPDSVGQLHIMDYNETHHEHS
UniProt Q14258, whole entry, looked up: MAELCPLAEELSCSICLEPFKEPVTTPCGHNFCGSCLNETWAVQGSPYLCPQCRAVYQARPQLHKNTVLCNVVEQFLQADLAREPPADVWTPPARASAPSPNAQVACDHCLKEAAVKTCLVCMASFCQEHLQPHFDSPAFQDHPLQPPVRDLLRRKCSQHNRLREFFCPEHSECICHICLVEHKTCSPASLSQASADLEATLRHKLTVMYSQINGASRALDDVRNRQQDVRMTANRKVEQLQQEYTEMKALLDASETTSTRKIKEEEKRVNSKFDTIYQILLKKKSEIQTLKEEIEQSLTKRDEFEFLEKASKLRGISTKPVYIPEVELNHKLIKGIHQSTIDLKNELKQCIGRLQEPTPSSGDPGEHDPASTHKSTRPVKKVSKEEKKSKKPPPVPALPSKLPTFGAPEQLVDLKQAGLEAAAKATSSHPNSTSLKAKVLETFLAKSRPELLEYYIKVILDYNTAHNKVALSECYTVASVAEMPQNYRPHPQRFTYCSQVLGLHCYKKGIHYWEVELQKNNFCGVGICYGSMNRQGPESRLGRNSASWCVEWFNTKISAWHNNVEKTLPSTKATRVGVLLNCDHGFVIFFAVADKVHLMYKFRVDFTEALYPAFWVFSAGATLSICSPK
UniProt Q96Q11: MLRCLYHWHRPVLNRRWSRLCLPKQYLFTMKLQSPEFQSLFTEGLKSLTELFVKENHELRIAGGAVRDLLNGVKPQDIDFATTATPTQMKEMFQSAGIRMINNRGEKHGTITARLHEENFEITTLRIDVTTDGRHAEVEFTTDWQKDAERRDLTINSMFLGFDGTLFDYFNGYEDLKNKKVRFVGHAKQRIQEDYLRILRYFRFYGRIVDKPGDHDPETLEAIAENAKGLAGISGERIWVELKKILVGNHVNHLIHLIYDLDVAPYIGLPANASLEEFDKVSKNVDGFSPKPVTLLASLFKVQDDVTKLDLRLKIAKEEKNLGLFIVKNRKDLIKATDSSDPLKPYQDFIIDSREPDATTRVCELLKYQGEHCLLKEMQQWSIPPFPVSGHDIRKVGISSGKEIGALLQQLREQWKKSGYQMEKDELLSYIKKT
UniProt Q8NFQ8: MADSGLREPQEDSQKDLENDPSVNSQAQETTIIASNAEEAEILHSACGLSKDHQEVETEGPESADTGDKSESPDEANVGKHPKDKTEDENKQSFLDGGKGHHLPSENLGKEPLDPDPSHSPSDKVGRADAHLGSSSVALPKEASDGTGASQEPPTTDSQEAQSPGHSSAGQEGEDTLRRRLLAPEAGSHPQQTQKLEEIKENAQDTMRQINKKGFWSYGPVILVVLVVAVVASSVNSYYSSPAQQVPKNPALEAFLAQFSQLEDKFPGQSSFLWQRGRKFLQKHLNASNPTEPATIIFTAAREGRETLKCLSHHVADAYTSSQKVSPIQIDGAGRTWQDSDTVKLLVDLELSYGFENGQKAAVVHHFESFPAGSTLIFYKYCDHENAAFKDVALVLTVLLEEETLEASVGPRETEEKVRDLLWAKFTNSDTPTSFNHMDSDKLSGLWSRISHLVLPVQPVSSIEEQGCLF

compound: c1cn2cc(-c3ccc4cn[nH]c4c3)nc(Nc3ccc(N4CCOCC4)cc3)c2n1 [entospletinib]; test: log2 fold change, soluble protein after heating vs DMSO (PISA); higher = thermal stabilisation; K562 cells, 10 uM, 30 min; active = over 0.2 and 3.5 SD of the protein, either way, in both replicates (recomputed)
Outline: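 Values are thermal stability changes relative to control samples and are taken from duplicates. They are stated as log2 fold changes. Before quantification by TMTpro 16plex LC-MS/MS with equalised channel sums, K562 cells at 2×10^6 cells/mL were treated with 10 μM compound for 30 min, heated in aliquots for 3 min across 48°C-58°C, pooled, extracted in PBS with 0.5% NP-40 at 4°C, and centrifuged at 21,000xg for 90 min to give the soluble supernatant.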

log2 fold change, inactive:
TOMM70 (UniProt O94826) -0.033
TPX2 (UniProt Q9ULW0) 0.032
TRMT112 (UniProt Q9UI30) 0.022
TPM3 isoform 4 (UniProt P06753) 0.011
TOMM40 (UniProt O96008) -0.045
TSC1 (UniProt Q92574) -0.058
TRIM25 (UniProt Q14258) 0.101
TRNT1 (UniProt Q96Q11) -0.024
TOR1AIP2 (UniProt Q8NFQ8) -0.006

Nothing new here: an excerpt of the list.
log2 fold change, inactive:
TPM3 isoform 4 (UniProt P06753) 0.011
TOMM40 (UniProt O96008) -0.045
